Test results from doi:10.1101/2025.09.22.677689.
Results are given in words; binding and its absence hold for the method and conditions named. In cells and extracts the contact can be indirect. Here binding means that the protein was enriched with, or labelled near, the bait; the list need not be complete.

Amino acid sequences for entries named in this document (tags omitted).
UniProt O88271: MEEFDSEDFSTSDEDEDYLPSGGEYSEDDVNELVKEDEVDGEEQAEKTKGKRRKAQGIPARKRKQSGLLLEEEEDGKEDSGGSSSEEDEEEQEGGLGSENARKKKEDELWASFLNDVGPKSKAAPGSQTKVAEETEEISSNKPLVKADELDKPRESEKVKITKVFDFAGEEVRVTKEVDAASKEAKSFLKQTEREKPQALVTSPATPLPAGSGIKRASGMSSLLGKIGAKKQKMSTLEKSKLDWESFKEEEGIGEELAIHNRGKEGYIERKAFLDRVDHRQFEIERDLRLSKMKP
UniProt P28740: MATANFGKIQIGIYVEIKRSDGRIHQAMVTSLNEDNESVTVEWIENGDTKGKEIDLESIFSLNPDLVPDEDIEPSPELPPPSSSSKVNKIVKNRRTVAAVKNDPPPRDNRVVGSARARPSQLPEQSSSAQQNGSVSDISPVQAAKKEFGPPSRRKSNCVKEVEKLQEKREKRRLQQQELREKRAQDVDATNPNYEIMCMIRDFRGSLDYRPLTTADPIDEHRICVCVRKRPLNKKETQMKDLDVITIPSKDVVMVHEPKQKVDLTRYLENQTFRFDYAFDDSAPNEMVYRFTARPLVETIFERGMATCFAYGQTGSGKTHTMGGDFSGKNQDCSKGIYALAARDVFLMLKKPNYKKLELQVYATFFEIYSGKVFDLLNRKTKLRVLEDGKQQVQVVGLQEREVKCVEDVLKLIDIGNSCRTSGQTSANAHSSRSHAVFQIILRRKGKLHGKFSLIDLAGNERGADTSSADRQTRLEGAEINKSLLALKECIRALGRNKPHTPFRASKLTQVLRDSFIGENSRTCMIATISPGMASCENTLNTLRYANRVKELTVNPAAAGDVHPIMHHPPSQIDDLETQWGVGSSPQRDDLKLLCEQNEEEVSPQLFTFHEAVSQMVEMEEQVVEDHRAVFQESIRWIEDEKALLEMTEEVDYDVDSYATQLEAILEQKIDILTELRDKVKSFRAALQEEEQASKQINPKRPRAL

B1: RCC1 (endogenous, NIH3T3) (protein, UniProt Q8VE37 1-421)
chain: MPPKRIAKRRSPPEDAIPKSKKVKVSHRSHNTEPGLVLTLGQGDVGQLGLGESVLERKKPALVPLLQDVVQAEAGGMHTVCLSQSGQVYSFGCNDEGALGRDTSVEGSEMVPGKVELQEKVVQVSAGDSHTAALTEDGRVFLWGSFRDNNGVIGLLEPMKKSMVPVQVQLDAPVVKVASGNDHLVMLTNDGDLYTLGCGEQGQLGRVPELFANRGGRQGLGRLLVPRCVLLKSRGTRGRVRFQDAFCGAYFTFAISREGHVYGFGLSNYHQLGTPGTGSCFIPQNLTSFKNSTKSWVGFSGGQHHTVCMDSEGKAYSLGRAEYGRLGLGEGAEEKSIPTLISRLPVVSSVACGASVGYAVSKDGRVFAWGMGTNYQLGTGQDEDAWSPVEMTGKQLENRVVLTVSSGGQHTVLLVKDQAQS
B2: Kif2c/MCAK (endogenous, NIH3T3) (protein, UniProt Q922S8 1-721)
chain: MESLHARLFPGLSINIQRSNGLIHPANISTVNVEKSCVSVEWIEGGTTKGKEIDIDDVAAINPELLQLLPLRPKDSLPLQENVTVPKQKRKSVNSKIPALKEGLRSRSTRMSTVSEVRIPAQENEMEVELPVPTNSRKQFAIPSHPRASCSTVTELPLLMVSEEAEEQAHSTRSTSSANPGNSVRRKSCIVKEMEKMKNKREEKRAQNSELRIKRAQEYDSSFPNWEFARMIKEFRVTMECSPLTVTDPIEEHRICVCVRKRPLNKQELAKKEIDVISVPSKCLLLVHEPKLKVDLTKYLENQAFCFDFAFDETASNEVVYRFTARPLVQTIFEGGKATCFAYGQTGSGKTHTMGGDLSGKSQNASKGIYAMASRDVFLLKNQPRYRNLNLEVYVTFFEIYNGKVFDLLNKKAKLRVLEDSRQQVQVVGLQEYLVTCADDVIKMINMGSACRTSGQTFANSNSSRSHACFQILLRTKGRLHGKFSLVDLAGNERGADTSSADRQTRMEGAEINKSLLALKECIRALGQNKAHTPFRESKLTQVLRDSFIGENSRTCMIAMISPGISSCEYTLNTLRYADRVKELSPHSGPSGEQPVQMETEVMEASSNGTSLTGNEEEELSSQMSSFNEAMTQIRELEERALEELREIIQQGPNWLELSEMTDQPDYDLETFVNKAESALTQQAKQAKHFSALREVIKALRLAMQLEEQASKQINSKKRHQ

target: 3xFLAG tagged CFDP1 (mouse), stably expressed in NIH3T3 cells (mouse) (UniProt O88271); assay: affinity purification with mass spectrometry; FLAG M2 magnetic beads, nuclear extracts of NIH3T3 cells stably expressing 3X FLAG-CFDP1, ~16 h at 4°C, elution with 3X FLAG peptide

binding, binds:
Kif2a (endogenous, NIH3T3) (from UniProt P28740 1-705)
TPX2 (endogenous, NIH3T3) (from UniProt A2APB8 1-745)
B1
B2
